# Results of single-concentration screens

A: 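Growth of Mycobacterium tuberculosis over 3 days (7H9 medium with glucose and tyloxapol); the read-out is not stated. Compounds at 50 µM. Direction is inferred from retests: higher values go with more growth inhibition. Size under these conditions: about 69,000 compounds, about 760 of them at 50% or above in at least one test.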
B: 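Whole-cell growth test on Mycobacterium tuberculosis, read after 4 days in a medium based on cholesterol and the lipid DPPC; the read-out is not stated. Compounds at 50 µM. Higher reads as more growth inhibition (inferred: compounds with an IC50 in retests scored well above the rest). About 69,000 compounds were tested under these conditions; 0.54% (about 370) showed 50% or more at least once.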

Results are given as percent effect.
The record does not define 0% and 100%; most values in the screen are far below 50% and negative numbers occur (in some assays of this library far below -100).
Compounds were drawn at random from those tested, without regard to their results.
Two or more numbers in one place are separate tests of the same structure; such repeats can differ widely.

SMILES,A,B
CCc1cc(N[C@@H](CO)C(N)=O)n2nc(C)c(C)c2n1,21.15,4.594
CCCn1ncc(C(=O)N2CCN(C3Cc4ccccc4C3)CC2)c1C,4.232 & 3.286,-3.445
CC(C)N1C(=O)C2(CCN(C)CC2)c2cc(F)ccc21.Cl,-20.8,0.9447
O=C(O)C(F)(F)F.[H][C@]12CC[C@@]3(N=C(C)N(CC4CC4)C3=O)[C@@]1([H])CN(CCOC)C2,20.13,-29.17 & -1.706
O=C1N(CC2CCC2)CCCC12CCN(S(=O)(=O)c1cccnc1)C2 (configuration not stated),17.18,-7.698
O=C1CSc2ccc(C(=O)N3CCCC(n4ccnc4)C3)cc2N1 (configuration not stated),31.57,-3.97
C[C@H]1CN(C(=O)c2ccoc2)C[C@@]12CCN(CCN(C)C)C2=O.O=C(O)C(F)(F)F,-33.49,-22.27 & -13.02
CCOc1ccccc1NC(=O)CN(C)Cc1ccccc1Cl,18.09,20.01
Cc1ccc([C@@H]2CN(S(=O)(=O)c3cccs3)C[C@H]2N(C)C)cc1,33.97,13.22
CCNC(=O)NC(=O)CNC(C)(C)c1ccc2c(c1)OCCO2,29.31 & 53.23,29.06
CC(C)C(=O)N1CCC2(CCN2CC2CC2)C1.O=C(O)C(F)(F)F (configuration not stated),-4.914 & -4.722,8.584
Cc1cc(F)ccc1N1CCCC(NC(=O)CCc2ccncc2)C1 (configuration not stated),-2.998,2.687
O=c1[nH]c2c(c(=O)n1C1CCCCC1)CCC2Nc1ccccc1Cl (configuration not stated),5.187,-15.47
COCC(=O)N1CCC(c2noc3nc(C)cc(C(F)(F)F)c23)CC1,-12.26,-19.92
Cn1nccc1C(=O)N1Cc2cc(Cl)ccc2OC2(CCOCC2)C1,19.17,13.38
CN(C)c1ncccc1CNS(=O)(=O)c1cc(F)ccc1F,8.923,-12.41
CC(=O)NCCC(=O)NCCCOc1c(C)cccc1C,-23.56,-4.544 & -26.36
CCCNC(=O)c1nc2c(o1)CN(C(=O)CN(C)C)C2,-11.25 & -2.835,2.449
Cc1ccc(-n2ncc(C(=O)N3CCCC3c3cnn(C)c3)c2C)cc1 (configuration not stated),-9.654 & 7.419,-15.46
O=C(O)c1cc(-c2ccncc2)cc(S(=O)(=O)N2CCSCC2)c1,-14.34 & -5.096,-10.21 & -24.62
CN(C)C(=O)N1CCc2c(nnn2C)C1COCC1CC1 (configuration not stated),-4.927 & 30.98,-3.504
Cc1nc(CN(C)S(=O)(=O)c2ccc(F)cc2Br)no1,26.2 & 2.01,22.06
Br.Cc1ccc(N(CC(=O)c2ccc(Br)cc2)C2=NCCCCC2)cc1,95.67 & 90.3,89.71
c1cc(N2CCC(CN3CCOCC3)CC2)c2sccc2n1,1.275,-16.21
COCC(=O)NC[C@]1(O)CN(Cc2ccc3c(c2)OCCO3)C[C@H]1O,-28.65,-15.01 & 0.399
O=C(O)C(F)(F)F.O=C(O)C(F)(F)F.[H][C@@]12C[C@@H](OCc3ccccn3)CN1CCN(C(=O)c1ccc(F)cc1)C2,14.93,-8.772
CC(C)NC(=O)[C@H](C)NC(=O)N1CCN(c2ccc(Cl)cc2)CC1,-3.267,-17.61
CCC(C)(COc1ncccc1Cl)NCC(=O)Nc1ccc(Br)cn1 (configuration not stated),1.56,-6.739
CC1CN(c2cc(CNCc3cccc4c3OCCO4)ccn2)CCO1 (configuration not stated),-28.37,-10.24
O=C(O)C(F)(F)F.[H][C@@]12COC[C@]1([H])[C@@H](OCc1csc(C)n1)CN2C(=O)c1ccc[nH]1,-4.646,-3.877
O=C(O)COc1ccccc1CN1CCCC1c1cnccn1 (configuration not stated),11.12,-9.787
COCCN(C)C(=O)NCCc1coc(-c2ccc(C)cc2)n1,28.92,-14.23
Cc1nn(C)c(C)c1OCC(=O)NCC(O)Cc1ccccc1 (configuration not stated),0.8176,-9.316
COc1ccc(C(O)C(=O)N2CCC(c3nccn3C(C)C)CC2)cc1 (configuration not stated),-15.61,-31.61
Cc1cc(O)cc(C2CCCN2C(=O)c2ccncc2)n1 (configuration not stated),11.46,0.9417
CC(C)c1nc(C2CCCN2Cc2nccn2CC(F)(F)F)no1 (configuration not stated),33.46,8.743
COC(=O)C(C)CN(C)S(=O)(=O)c1c(Br)cc2[nH]c(=O)oc2c1Cl (configuration not stated),0.6446,16.23
CCCN(C)C(=O)Nc1ccc(C(=O)NCCC(=O)OC)cc1,7.62,2.656 & -4.725
CCn1cc(CN2CCCn3nc(CNC(=O)C4CCC4)cc3C2)cn1,-12.71,-21.45
CC(=O)Nc1ccc(C(=O)N(C)Cc2cccc(F)c2)s1,17.02,8.923
NC(=O)C1(CCCc2ccccn2)CCCN(CCO)C1 (configuration not stated),8.31,9.865
O=C(O)C(F)(F)F.O=C(O)C(F)(F)F.[H][C@]12OCCN(C3CCOCC3)[C@@]1([H])CC[C@@H]2OCc1cccnc1,8.402,-12.27
Cn1cc(C2CCCN2C(=O)COCCOc2ccccc2)cn1 (configuration not stated),-12.93 & 11.3,-4.013
NC(=O)c1ccc2c(c1)nc1n2CCN(Cc2ccccc2)C1,14.77 & -2.268,-13.67
CC(=O)Nc1ccc2nc(CN(C)Cc3snnc3C)ccc2c1,-47.65,16.16
CCOCC(O)CN1CCN(C(=O)c2ccc(OC)cc2)CC1 (configuration not stated),-14.25,-13.53
COc1cc(CNCC(O)c2cccc(F)c2)cc2c1OCO2.Cl (configuration not stated),2.902 & -54.94,7.893
Cc1noc(C)c1CCC(=O)N1CCN(CCn2cccn2)CC1,-8.587 & -7.309,-18.77
CN1CC(c2ccccc2)CC2(CCN(C(=O)c3cccnn3)CC2)C1 (configuration not stated),4.341,1.836
FC(F)(F)C1CN(Cc2cccc(-c3ccccn3)c2)CCO1 (configuration not stated),3.677,7.447
COc1ccccc1OCC(=O)NS(=O)(=O)c1ccccc1Br,14.22,3.144
CCN1CC2(CC1=O)CN(Cc1ccco1)CCN(C(=O)N(C)C)C2.O=C(O)C(F)(F)F (configuration not stated),-8.004,-22.53
CN(Cc1cccc(O)c1)C(=O)Nc1cccnc1N1CCCC1,-17.6,-17.09
[H][C@@]12COC[C@]1(C(=O)N(C)Cc1ccccn1)CN(Cc1cnn(C)c1)C2,-4.127,14.44
Cc1ccc(CN2CCc3nc(C(C)C)nc(O)c3CC2)s1,-4.026,-30.4
Cc1cn2c(n1)CCC(NC(=O)c1cncnc1C)C2 (configuration not stated),12.94,2.518
COC1CCN(S(=O)(=O)N2CC(c3ccccc3)C(C)(C)C2)CC1 (configuration not stated),-24.37 & -2.229,-0.8744
CCn1cc(CN2CCCN(C(=O)c3ccc(C#N)cc3)CC2)cn1,-25.88,-11.59
O=C(O)C(F)(F)F.O=C(O)C(F)(F)F.[H][C@]12CCN(Cc3ccccn3)[C@@]1([H])CC[C@H](COCC1CCOCC1)O2,3.45,-29.33
CCCN(C(=O)COCC)c1cccc(C)c1,4.001,3.46
COCc1nc(C(=O)NS(=O)(=O)c2ccc(OC)c(C)c2)cs1,4.572 & 3.528,5.924
CCCn1ncc(C(=O)NC(C)c2c(C)nn(CC)c2C)c1C (configuration not stated),25.07,12.15
CC(C)n1cc(CN2CCCN(C(=O)CN3CCCC3=O)CC2)cn1,-30.38 & -9.414,-31.37
CC(C)OCCC(=O)NCCC(=O)N1CCN(c2ccccn2)CC1,26.15,25.12
O=C(O)C(F)(F)F.[H][C@]12CCN(c3ccccn3)C[C@@]1([H])OCCN(C(=O)c1ccco1)C2,12.5 & -0.3034,17.8
Cn1cnc(S(=O)(=O)N2CC3(CCN(c4ccccc4)C3)C2)c1.O=C(O)C(F)(F)F,-24.38,-16.13
[H][C@@]12CCN(S(=O)(=O)C3CC3)C[C@@]1([H])O[C@@H](c1ccnc(C)n1)C2,-3.359,-17.89
CC(C)(CNC(=O)C1CCCN(C(N)=O)C1)c1cccc(Cl)c1 (configuration not stated),-18.16 & -7.799,-23.72
Cc1nnc2n1CCN(C(=O)C(C)Oc1ccc(C#N)cc1)C2 (configuration not stated),-1.132,-0.7207
CCc1nc(CN2CCCC(N(C)Cc3cnc(C)s3)C2)no1 (configuration not stated),-6.81 & -9.177,-21.73
Cc1ccc(C(=O)N(C)Cc2ccc3c(c2)OCO3)c(=O)[nH]1,8.449,-1.338
CC(C)N1CCC(CC(=O)N(C)CC(=O)c2ccc(O)cc2)CC1,-12.57 & -1.633,11.59
COc1cc(F)c(S(=O)(=O)NCc2ccnc(N(C)C)n2)cc1OC,23.57,15.55
c1cc(N2CCC3(COCc4cnc(NCC5CC5)nc43)C2)ncn1 (configuration not stated),-21.39,-14.7
CNC(=O)NC(=O)CSc1ccc2c(c1)CCC2,-21.48 & 12.95,-30.15
Cc1noc(C2CCCN(C(=O)c3ccc(N(C)C)nc3)C2)n1 (configuration not stated),-20.82,-1.304
CCNC(=O)c1ccc(NC(=O)N(C)Cc2cc(C)on2)cc1,15.55,3.959
O=S(=O)(Nc1cnn(C2CCOCC2)c1)c1c(F)cccc1F,2.486,-3.416
CC(C(=O)Nc1cccc(F)c1)N(C)CCN1CCOCC1 (configuration not stated),9.719 & -6.447,14.8
COc1c(C)cnc(CN(C)C(=O)Nc2ccc3c(c2)CCO3)c1C,11.07,-11.98
CN1CC(c2cc(O)nc(NCc3ccc(Cl)cc3)n2)CC1=O (configuration not stated),6.304,-24.04
CCC(C)NC(=O)Cn1ccc2c(C)nn(CC)c2c1=O (configuration not stated),-13.43,-17.71
Cc1cc(NC2CCc3nc(C(C)C)nn3C2)n2ncnc2n1 (configuration not stated),-4.498,-15.02
CC(C)COC1CC2(CCN(C(=O)Cc3ccccn3)CC2)C1.O=C(O)C(F)(F)F,-15.59,-7.692

The first 5 entries again:

For CCc1cc(N[C@@H](CO)C(N)=O)n2nc(C)c(C)c2n1 the result was A: 21.15%; B: 4.594%.
For CCCn1ncc(C(=O)N2CCN(C3Cc4ccccc4C3)CC2)c1C the result was A: 4.232% & 3.286%; B: -3.445%.
For CC(C)N1C(=O)C2(CCN(C)CC2)c2cc(F)ccc21.Cl the result was A: -20.8%; B: 0.9447%.
For O=C(O)C(F)(F)F.[H][C@]12CC[C@@]3(N=C(C)N(CC4CC4)C3=O)[C@@]1([H])CN(CCOC)C2 the result was A: 20.13%; B: -29.17% & -1.706%.
For O=C1N(CC2CCC2)CCCC12CCN(S(=O)(=O)c1cccnc1)C2 (configuration not stated) the result was A: 17.18%; B: -7.698%.

Data taken from ChEMBL document CHEMBL3988442, “University of Dundee, Small-Polar-MMV Screening Library” (2021).